Tested on: THP-1 cells
Test: Subcellular localization of FPy1 (co-staining)
Type: cell-based
Details: FPy1 5 μM, LPS 1 μg/mL and Nig 10 μM

Substance: –FLTDG– [FPy1, RhoB donor, hNR quencher]
- Pearson's correlation coefficient, endoplasmic reticulum (ER-Tracker Green): 0.4448
- intracellular distribution: predominantly exhibited a diffuse intracellular distribution
- Pearson's correlation coefficient, Golgi apparatus (Golgi-Tracker Green): 0.4320
- Pearson's correlation coefficient, lysosomes (Lyso-Tracker Green): 0.5682
- Pearson's correlation coefficient, mitochondria (Mito-Tracker Green): 0.4954

Reference: PMC12598616, “Design and optimization of caspase-1-responsive fluorescent probes for pyroptosis imaging and anti-pyroptosis drug screening” (Chemical Science, 2025)
